{
  "sequences": {"note": "By UniProt entry, the sequences of proteins in these tests, tags left out. Residues count along the entry.", "UniProt Q83884, residues 229-519": "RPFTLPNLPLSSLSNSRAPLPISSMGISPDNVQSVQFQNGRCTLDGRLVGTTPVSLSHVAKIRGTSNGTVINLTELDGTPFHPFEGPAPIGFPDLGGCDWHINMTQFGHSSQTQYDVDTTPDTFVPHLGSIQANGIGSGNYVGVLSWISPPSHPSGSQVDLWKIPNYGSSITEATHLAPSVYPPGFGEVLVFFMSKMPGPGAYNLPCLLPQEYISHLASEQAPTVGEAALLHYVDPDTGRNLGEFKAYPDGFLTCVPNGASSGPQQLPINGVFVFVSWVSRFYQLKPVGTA"},
  "source": "patent US20160061835A1",
  "about": "(BAYLOR COLLEGE OF MEDICINE, published 2016)",
  "binders": {"B1": {"name": "NV-N-R5-1 phage (peptide, not shown: large carriers)", "chain": "LPSWYLAYQKII"}},
  "target": "purified NV P-domain (Norwalk virus (genotype GI.1)) (UniProt Q83884)",
  "assay": "phage ELISA on adsorbed purified NV P-domain, HRP-conjugated M13 phage antibody",
  "note": "No constants are given. Whether binding was seen depends on the method and setting. Some binding calls cover weakened binding; strength is not graded here.",
  "data": [
    {"binder": "B1", "values": [
      {"measurement": "binding", "value": "binds"}
    ]}
  ]
}
